Source: publication PMC9789103
No constants are given. Whether binding was seen depends on the method and setting. In cells and extracts the contact can be indirect. Some entries that bind do so weakly or less than the wild type. Tags and fused reporters may be left off the sequences shown. Blank lines part the entries; values can stand above or below the molecule they belong to.

Amino acid sequences for entries named in this document (tags omitted).
UniProt P51960: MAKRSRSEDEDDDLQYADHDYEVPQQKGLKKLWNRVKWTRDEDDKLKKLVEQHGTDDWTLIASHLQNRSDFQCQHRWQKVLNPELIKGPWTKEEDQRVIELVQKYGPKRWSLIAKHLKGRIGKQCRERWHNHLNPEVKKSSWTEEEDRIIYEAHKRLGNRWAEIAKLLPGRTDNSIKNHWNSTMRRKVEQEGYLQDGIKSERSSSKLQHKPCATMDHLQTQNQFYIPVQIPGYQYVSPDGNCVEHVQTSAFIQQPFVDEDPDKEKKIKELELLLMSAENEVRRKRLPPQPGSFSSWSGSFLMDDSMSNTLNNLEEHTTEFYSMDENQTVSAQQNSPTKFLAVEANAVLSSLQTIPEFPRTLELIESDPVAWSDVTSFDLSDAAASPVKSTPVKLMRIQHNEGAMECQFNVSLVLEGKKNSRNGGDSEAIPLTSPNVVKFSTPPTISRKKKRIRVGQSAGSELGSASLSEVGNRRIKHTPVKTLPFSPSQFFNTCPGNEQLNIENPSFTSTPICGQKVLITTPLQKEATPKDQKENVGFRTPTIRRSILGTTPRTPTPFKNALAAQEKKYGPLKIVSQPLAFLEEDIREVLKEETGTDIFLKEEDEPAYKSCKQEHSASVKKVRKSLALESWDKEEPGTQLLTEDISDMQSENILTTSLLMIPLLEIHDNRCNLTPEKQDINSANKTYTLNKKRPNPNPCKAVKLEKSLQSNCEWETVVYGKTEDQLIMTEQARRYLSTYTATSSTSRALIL

Molecular target: T1, TESMIN-BioID2-3xFLAG (mouse) (UniProt Q9WTJ6)
T1 sequence: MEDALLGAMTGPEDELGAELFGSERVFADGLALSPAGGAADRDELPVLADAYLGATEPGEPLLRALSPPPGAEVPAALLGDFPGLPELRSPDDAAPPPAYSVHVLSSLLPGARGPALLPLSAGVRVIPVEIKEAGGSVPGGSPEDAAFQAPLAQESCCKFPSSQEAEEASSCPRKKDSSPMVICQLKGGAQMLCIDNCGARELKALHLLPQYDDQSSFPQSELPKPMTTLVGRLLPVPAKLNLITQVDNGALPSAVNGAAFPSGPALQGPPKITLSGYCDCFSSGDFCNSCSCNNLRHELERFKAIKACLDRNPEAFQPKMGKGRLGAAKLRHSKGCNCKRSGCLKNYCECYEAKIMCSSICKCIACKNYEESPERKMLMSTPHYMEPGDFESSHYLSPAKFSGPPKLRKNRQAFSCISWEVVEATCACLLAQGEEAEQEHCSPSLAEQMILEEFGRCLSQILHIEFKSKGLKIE
Test: co-IP; anti-FLAG immunoprecipitation from BioID2-Tg lysate, immunoblot for MYBL1, LIN9, DVL2; also immunoprecipitation with anti-MYBL1, -LIN9 and -DVL2 antibodies, immunoblot for TESMIN-BioID2-3xFLAG; NP40 lysis buffer, 1 h at 4 °C

- binding: binds
Molecule: MYBL1 (from UniProt P51960 1-751)

- binding: binds
B1: LIN9 (protein, UniProt Q8C735 1-542)
chain: MAELDQLPDESSSAKALVSLKEGSLSNTWNEKYSSLQKTPVWKGRNAGPAVEMPFRNSKRSRLFSDEDDRQINTKSPKRNQRVAMIPQKFTATMSTPDKKASQKIGFRLRNLLKLPKAHKWCIYEWFYSNIDKPLFEGDNDFCVCLKESFPNLKTRKLTRVEWGKIRRLMGKPRRCSSAFFEEERSALKQKRQKIRLLQQRKVADVSQFKDLPDEIPLPLVIGTKVTARLRGIHDGLFTGQIDAVDTLNATYRVTFDRTGLGTHTIPDYEVLSNEPHETMPISAFGQKQRPSRFFMTPPRLHYTPPLQSPITDGDPLLGQSPWRSKVSGSDTETLGGFPVEFLIQVTKLSKILMIKKEHIKKLREMNTEAEKLKSYSMPIGIEFQRRYATIVLELEQLNKDLNKVLHKVQQYCYELAPDQGLQPADQPTDMRRRCEEEAQEIVRQANSASGQPCVENENLTDLISRLTAILLQIKCLAEGGDLNSFEFKSLTDSLNDIKNTIDASNISCFQNNVEIHVAHIQSGLSQMGNLHAFAANNTNRD
